Primary screen of a compound library

Chains of the proteins cited; added tags and fusions are not shown. Residues count along the entry.
UniProt P9WNZ1, whole entry: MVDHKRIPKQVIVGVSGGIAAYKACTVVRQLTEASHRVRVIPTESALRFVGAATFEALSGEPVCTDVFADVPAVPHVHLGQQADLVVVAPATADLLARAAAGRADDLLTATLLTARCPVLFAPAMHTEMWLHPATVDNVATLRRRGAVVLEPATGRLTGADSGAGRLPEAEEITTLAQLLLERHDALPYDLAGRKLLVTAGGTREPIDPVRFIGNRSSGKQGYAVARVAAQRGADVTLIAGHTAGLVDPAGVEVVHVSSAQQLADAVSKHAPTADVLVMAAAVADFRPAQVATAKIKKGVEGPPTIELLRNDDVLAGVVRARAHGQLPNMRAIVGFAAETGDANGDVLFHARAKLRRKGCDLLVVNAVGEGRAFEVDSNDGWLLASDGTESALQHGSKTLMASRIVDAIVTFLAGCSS
UniProt P9WFT3, whole entry: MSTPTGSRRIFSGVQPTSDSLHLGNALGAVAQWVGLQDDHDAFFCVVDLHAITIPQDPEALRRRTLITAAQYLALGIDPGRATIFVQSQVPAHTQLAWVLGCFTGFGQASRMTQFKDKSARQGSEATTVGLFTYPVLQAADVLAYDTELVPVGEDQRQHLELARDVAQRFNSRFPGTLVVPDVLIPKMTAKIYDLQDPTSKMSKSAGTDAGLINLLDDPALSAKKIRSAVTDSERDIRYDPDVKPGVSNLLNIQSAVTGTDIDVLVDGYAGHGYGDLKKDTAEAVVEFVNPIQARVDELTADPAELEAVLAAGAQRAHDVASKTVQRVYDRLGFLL
UniProt A4I591, 1-473: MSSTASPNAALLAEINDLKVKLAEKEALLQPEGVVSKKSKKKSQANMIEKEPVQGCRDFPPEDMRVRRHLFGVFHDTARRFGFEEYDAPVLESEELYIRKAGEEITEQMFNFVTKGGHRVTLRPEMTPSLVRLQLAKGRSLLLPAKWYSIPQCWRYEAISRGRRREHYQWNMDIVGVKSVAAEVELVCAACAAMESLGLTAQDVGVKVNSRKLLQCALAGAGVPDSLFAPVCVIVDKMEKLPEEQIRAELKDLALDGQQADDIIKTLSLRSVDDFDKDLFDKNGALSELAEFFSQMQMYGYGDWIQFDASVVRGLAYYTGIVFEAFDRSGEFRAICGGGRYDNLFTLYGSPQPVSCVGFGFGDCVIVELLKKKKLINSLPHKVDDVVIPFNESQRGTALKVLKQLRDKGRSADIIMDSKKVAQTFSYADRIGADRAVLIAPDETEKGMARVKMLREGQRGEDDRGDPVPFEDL

Measurements from “University of Dundee, Small-Polar-MMV Screening Library” (2021), ChEMBL document CHEMBL3988442.

A: 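Coenzyme A biosynthesis protein CoaBC, Mycobacterium tuberculosis (UniProt P9WNZ1). Enzyme assay of CoaBC with a phosphate dye (Biomol Green) read at 650 nm. Tested at 30 µM. Direction is inferred from only a few compounds that gave an IC50; most scored high, so higher reads as stronger inhibition. Most strong results did not repeat in a second test. Of about 67,000 compounds tested this way, about 40 (0.06%) reached 50% or more in at least one test.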
B: 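Assay of Toxoplasma gondii numbers, read through their beta-galactosidase reporter with a colour substrate. Tested at 10 µM. The record gives no direction; the compounds picked for IC50 retests had high values, so higher reads as fewer parasites. Size under these conditions: about 67,000 compounds, about 260 of them at 50% or above in at least one test.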
C: 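Cell assay of Leishmania donovani living inside macrophages; the read-out is not stated. Compounds at 30 µM. Higher reads as stronger inhibition (inferred: compounds with an IC50 in retests scored well above the rest). Size under these conditions: about 69,000 compounds, about 1,000 of them at 50% or above in at least one test.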
D: 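Tryptophan-tRNA ligase, Mycobacterium tuberculosis (UniProt P9WFT3). Enzyme assay of tryptophanyl-tRNA synthetase; the read-out is not stated. Tested at 10 µM. Direction is not recorded; retested compounds ran higher, which suggests that high means inhibition. Of about 65,000 compounds tested this way, about 64 (0.098%) reached 50% or more in at least one test.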
E: 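Histidine-tRNA ligase, Leishmania infantum (UniProt A4I591). Enzyme assay of histidyl-tRNA synthetase; the read-out is not stated. Concentration: 30 µM. Higher reads as stronger inhibition (inferred: compounds with an IC50 in retests scored well above the rest). The assay is labelled LdHisRS but filed under L. infantum. Of about 69,000 compounds tested this way, about 410 (0.6%) reached 50% or more in at least one test.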

The filed quantity is “Percent Effect” (%).
The controls that fix the scale are not given in the record; negative values are as filed.
The compounds are a random part of those screened.
Two or more numbers in one place are separate tests of the same structure; such repeats can differ widely.
A dash means the value is not listed here; it may have been measured.

structure	A	B	C	D	E
CCn1nc(CC(C)C)cc1C(=O)N1CC(N2CCCCC2C)C1 (stereo unspecified)	-7.863	-2.714	22.28	-4.844	21.21
COC(=O)Cn1c(=O)nc2n1C(=O)N(c1ccc(C)cc1)C2	-1.277	-4.97	-15.73	-5.81	2.597
Cl.NC(C(=O)N1CCSc2ccccc2C1)c1ccccc1 (stereo unspecified)	-	17.16	-9.887	-	-
CC1CN(C)CCN1C(=O)c1cccn1Cc1ccncc1 (stereo unspecified)	1.703	-22.62	12.32	2.106	11.11
[H][C@]12CC[C@](O)(CC1)C(CN1CCOCC1)N2C(=O)Nc1ccccc1 (stereo partly specified)	-	-32.5	1.147	-	-
CN(CC(=O)N1CCCC1)C(=O)c1ccccc1F	12.3	-5.68	9.35	-4.009	18.28
CCC(=O)N1CCC(c2nc3c(c(NC)n2)CN(C)CC3)C1 (stereo unspecified)	4.821	4.403	-8.254	-6.745	10.34
Cc1cccc(OC2CCN(Cc3ncc[nH]3)CC2)c1	1.517	5.716	-10.49	1.782	11.67
Cc1ccc2c(c1)C(NC(=O)C1CCN(S(C)(=O)=O)CC1)CC(C)(C)O2 (stereo unspecified)	0.2457	-64.53	19.85	2.308	-2.151
CCS(=O)(=O)N1CCC2(CC(=O)N(c3cnn(C)c3)C2)C1 (stereo unspecified)	-0.3226	5.542	-7.66	-2.881	2.778
CCC(C)NC(=O)NCc1cc2n(n1)CCCN(C1CCCCC1)C2 (stereo unspecified)	-2.286	2.794	50.3	0.5869	4.494
O=C(CCC(=O)N1CCOCC1)NCc1cccnc1-n1cccn1	-1.364	11.55	31.02	-1.041	21.92
FC1(F)CCN(Cc2ccccn2)CC12CCN(c1cccnc1)C2.O=C(O)C(F)(F)F.O=C(O)C(F)(F)F.O=C(O)C(F)(F)F (stereo unspecified)	-	-1.13	17.45	-	-
CC1CN(C)c2ccccc2N(C(=O)c2ccc(=O)n(C)c2)C1 (stereo unspecified)	3.827	4.371	26.89	-5.608	16.36
CC(O)(CCc1ccccc1)CNC(=O)c1ccsc1 (stereo unspecified)	9.937	24.97	-1.215 and 11.33	-0.5319	-5.217
Nc1nc2c(c(N3CCC(CCn4cccn4)CC3)n1)CCNCC2	-46.9	7.398	-47.34	-7.046	21.67
CC(=O)N1CCCC(Cc2cnc(C(=O)N3CCC(C)CC3)cn2)C1 (stereo unspecified)	-0.3717	0.1071	-0.8862	-	4
CCCn1nc(-c2nc(C3CC3)no2)ccc1=O	6.09	6.791	0.04951	0.5187	11.4
O=C(c1ccccn1)N1CCc2c(nc(-c3ccncc3)[nH]c2=O)C1	4.405	2.11	19.63	-5.06	26.03
CC(C)C(C#N)N1CCN(Cc2nccn2CC(F)(F)F)CC1 (stereo unspecified)	3.023	1.401	15.26	-1.469	1.613
CCc1csc(C2CCCN(C(=O)c3ccnc(N(C)C)c3)C2)n1 (stereo unspecified)	0.135	0.8547	0.2404	-2.648	22.86
O=C(c1ccc(COc2ccc(Cl)cc2)o1)N1N=CCC1(O)C(F)(F)F (stereo unspecified)	-2.357	95.68	-74.85	2.25	0
Cc1ccc(CNCCN2CCOCC2)o1	5.67 and 31	-28.23	-14.4	6.948	9.929
CC(=O)NCC1CCN(c2cc(C(C)C)nc3ccnn23)CC1	2.381	2.324	-5.983	1.458	30.56
Cc1nc(NC(=O)N[C@H](CO)c2ccccc2)sc1C	5.696	-16.13	34.88	-0.5439	20.48
CS(=O)(=O)Cc1ccc(Cl)c(NCc2noc(C3CC3)n2)c1	12.39	13.23	1.792	-5.924	10.26
CN(Cc1ccccn1)C(=O)[C@]12COC[C@H]1CN(Cc1cnn(C)c1)C2	1.904	-	-	-5.142	18.87
Cc1cccc(Nc2ccc(C3CCCCN3)cn2)n1 (stereo unspecified)	2.375	-	-7.472	-1.427	9.859
[H][C@@]12CCN(C(=O)c3nnc4n3CCCC4)C[C@@]([H])(CC1)N2C	-	-1.429	17.81	-	-
COc1ccccc1CN1CCC(O)(Cn2ccc3ncccc32)CC1	3.676	-0.1459	-0.1563	-	15.62
COc1cc(N2C[C@@H]3COC[C@@H](Cc4nc(C)no4)[C@@H]3C2)ncn1	2.351	-	-	-	15.84
CC(C)(C)c1nc2cc(NC(=O)Cn3ccc(=O)[nH]c3=O)ccc2o1	11.63	-17.35	5.792	-1.591	14
CN(Cc1cccnc1)[C@@H]1CN(C(=O)CC2CC2)[C@@H]2CCCO[C@H]12	-14.67	-	-	0.9752	6.944
CNC(=O)c1ccc(C(=O)N2CCCC(n3cc(C)cn3)C2)cn1 (stereo unspecified)	1.928	-0.4235	14	0.07994	32.88
CCN(CC)C(=O)c1ccn(COc2cc(C)cc(C)c2)n1	7.941	1.913	51.39	5.025	11.65
[H][C@@]12CS(=O)(=O)C[C@]1([H])N(C(=O)Cc1ccc(F)c(C)c1)CCN2CC(C)C	-	-20.27	14.25	-	-
CC(C)NC(=O)N[C@H]1C[C@@H](c2nc(-c3ccc(F)cc3)no2)N(C)C1	13.91	-6.061	13.42	-5.842	14.86
c1ccc(-n2ccnc2)c(CNCC2CNc3ccnn3C2)c1 (stereo unspecified)	7.229	3.706	37.58	-2.638	19.18
CCS(=O)(=O)N1C[C@@H](OCc2ccccn2)[C@@H]2OCCC[C@@H]21	1.681	-	-	4.01	10.91

Some entries from above, unchanged:

structure,A,B,C,D,E
FC1(F)CCN(Cc2ccccn2)CC12CCN(c1cccnc1)C2.O=C(O)C(F)(F)F.O=C(O)C(F)(F)F.O=C(O)C(F)(F)F (stereo unspecified),-,-1.13,17.45,-,-
[H][C@@]12CCN(C(=O)c3nnc4n3CCCC4)C[C@@]([H])(CC1)N2C,-,-1.429,17.81,-,-
CS(=O)(=O)Cc1ccc(Cl)c(NCc2noc(C3CC3)n2)c1,12.39,13.23,1.792,-5.924,10.26